Percent effect of library compounds

Chains of the proteins cited; added tags and fusions are not shown. Residues count along the entry.
UniProt Q8IDJ8, 1-583: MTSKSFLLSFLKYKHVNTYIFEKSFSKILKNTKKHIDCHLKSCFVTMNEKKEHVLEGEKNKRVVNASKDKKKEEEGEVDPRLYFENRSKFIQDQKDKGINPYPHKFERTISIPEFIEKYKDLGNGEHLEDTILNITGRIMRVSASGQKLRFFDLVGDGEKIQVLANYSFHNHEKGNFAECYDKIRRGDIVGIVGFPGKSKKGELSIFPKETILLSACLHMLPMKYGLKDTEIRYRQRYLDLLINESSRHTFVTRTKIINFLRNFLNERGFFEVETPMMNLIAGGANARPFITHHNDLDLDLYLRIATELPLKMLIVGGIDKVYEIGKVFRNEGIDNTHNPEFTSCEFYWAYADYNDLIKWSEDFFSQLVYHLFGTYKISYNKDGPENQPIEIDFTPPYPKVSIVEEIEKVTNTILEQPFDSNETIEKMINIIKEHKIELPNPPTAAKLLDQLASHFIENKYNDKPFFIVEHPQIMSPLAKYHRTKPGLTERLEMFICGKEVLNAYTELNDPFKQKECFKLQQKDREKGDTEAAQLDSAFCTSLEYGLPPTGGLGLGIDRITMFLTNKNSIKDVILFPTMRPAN
UniProt I6X8D2, whole entry: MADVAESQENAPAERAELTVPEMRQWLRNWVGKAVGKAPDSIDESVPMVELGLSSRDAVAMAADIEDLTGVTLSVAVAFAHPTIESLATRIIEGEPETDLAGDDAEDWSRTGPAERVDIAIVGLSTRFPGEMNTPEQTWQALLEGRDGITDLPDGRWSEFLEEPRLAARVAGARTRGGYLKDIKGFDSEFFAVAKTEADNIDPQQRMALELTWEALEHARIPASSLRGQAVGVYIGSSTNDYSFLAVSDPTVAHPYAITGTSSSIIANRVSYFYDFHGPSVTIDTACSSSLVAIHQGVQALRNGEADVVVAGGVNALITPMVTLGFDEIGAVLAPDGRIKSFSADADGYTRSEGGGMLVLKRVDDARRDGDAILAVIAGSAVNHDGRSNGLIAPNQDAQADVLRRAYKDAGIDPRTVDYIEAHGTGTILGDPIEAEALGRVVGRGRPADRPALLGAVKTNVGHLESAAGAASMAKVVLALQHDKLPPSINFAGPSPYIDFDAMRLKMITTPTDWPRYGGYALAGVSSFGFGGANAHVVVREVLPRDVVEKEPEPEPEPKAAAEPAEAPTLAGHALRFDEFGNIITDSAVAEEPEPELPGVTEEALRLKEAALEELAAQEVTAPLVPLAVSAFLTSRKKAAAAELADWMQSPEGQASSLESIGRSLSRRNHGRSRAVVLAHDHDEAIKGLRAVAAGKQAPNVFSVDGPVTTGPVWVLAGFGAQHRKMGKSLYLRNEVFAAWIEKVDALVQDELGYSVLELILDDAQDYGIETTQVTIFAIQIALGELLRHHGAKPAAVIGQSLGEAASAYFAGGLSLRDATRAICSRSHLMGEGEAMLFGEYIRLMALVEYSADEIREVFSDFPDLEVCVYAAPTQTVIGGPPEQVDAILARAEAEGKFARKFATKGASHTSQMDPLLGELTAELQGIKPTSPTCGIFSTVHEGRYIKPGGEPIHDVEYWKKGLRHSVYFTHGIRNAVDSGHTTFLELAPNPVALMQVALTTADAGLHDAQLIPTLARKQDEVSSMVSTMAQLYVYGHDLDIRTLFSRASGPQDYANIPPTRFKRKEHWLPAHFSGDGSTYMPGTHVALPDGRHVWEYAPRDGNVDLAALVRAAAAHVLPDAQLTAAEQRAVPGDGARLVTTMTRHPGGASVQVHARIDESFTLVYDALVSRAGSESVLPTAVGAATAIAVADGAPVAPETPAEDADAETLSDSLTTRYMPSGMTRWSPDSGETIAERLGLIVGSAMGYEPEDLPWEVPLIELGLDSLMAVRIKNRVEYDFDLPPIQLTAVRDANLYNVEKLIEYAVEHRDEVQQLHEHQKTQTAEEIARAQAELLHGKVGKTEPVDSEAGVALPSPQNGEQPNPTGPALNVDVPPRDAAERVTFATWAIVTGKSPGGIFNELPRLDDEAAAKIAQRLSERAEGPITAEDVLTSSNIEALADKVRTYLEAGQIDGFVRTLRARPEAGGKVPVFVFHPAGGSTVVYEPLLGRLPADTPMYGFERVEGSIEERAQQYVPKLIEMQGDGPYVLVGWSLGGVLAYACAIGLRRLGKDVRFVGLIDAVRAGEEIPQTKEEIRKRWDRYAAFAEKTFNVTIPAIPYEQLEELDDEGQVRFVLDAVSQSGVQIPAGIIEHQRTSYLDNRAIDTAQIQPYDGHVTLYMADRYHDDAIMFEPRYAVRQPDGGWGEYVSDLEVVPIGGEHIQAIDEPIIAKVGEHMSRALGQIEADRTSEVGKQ
UniProt P9WFT3, whole entry: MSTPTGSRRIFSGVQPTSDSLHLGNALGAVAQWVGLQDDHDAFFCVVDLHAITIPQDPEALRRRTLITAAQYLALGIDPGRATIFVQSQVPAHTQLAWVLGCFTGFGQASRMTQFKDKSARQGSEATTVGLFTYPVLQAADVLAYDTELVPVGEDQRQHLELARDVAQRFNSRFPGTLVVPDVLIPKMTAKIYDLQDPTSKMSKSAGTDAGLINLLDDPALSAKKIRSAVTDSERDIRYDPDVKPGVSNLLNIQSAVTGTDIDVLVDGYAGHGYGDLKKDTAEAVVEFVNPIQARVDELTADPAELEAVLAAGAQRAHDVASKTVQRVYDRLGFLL
UniProt Q4DA54, 1-478: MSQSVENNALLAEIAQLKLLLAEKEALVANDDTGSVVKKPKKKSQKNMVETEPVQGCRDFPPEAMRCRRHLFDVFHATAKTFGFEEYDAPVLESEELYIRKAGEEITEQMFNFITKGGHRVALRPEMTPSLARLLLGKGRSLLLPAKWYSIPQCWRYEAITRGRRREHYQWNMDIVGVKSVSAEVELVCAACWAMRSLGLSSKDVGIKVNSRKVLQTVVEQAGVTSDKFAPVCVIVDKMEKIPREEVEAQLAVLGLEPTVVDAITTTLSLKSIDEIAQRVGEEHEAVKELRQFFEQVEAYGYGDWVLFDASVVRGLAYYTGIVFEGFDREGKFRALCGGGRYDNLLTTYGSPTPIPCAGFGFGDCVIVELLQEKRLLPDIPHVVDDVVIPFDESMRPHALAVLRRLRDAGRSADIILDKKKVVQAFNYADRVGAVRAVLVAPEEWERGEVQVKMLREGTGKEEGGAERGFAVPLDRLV

PfKRS1: 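Enzyme assay of the cytosolic lysyl-tRNA synthetase in 384-well plates, read by luminescence. Target: Lysine-tRNA ligase, Plasmodium falciparum 3D7 (UniProt Q8IDJ8). Tested at 30 µM. Higher reads as stronger inhibition, judged from the few compounds that gave an IC50. Of about 69,000 compounds tested this way, about 49 (0.071%) reached 50% or more in at least one test.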
Pks13 thioesterase: 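Enzyme assay of the thioesterase domain of polyketide synthase 13; the read-out is not stated. Target: Polyketide synthase Pks13, Mycobacterium tuberculosis (UniProt I6X8D2). Compounds at 30 µM. Higher reads as stronger inhibition (inferred from which compounds were picked for retests). Size under these conditions: about 67,000 compounds, about 300 of them at 50% or above in at least one test.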
MtTrpRS: 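Enzyme assay of tryptophanyl-tRNA synthetase; the read-out is not stated. Target: Tryptophan-tRNA ligase, Mycobacterium tuberculosis (UniProt P9WFT3). Compounds at 10 µM. Direction is not recorded; retested compounds ran higher, which suggests that high means inhibition. Of about 65,000 compounds tested this way, about 64 (0.098%) reached 50% or more in at least one test.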
TcHisRS: 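Histidine-tRNA ligase, Trypanosoma cruzi CL Brener (UniProt Q4DA54). Enzyme assay of histidyl-tRNA synthetase; the read-out is not stated. Concentration: 30 µM. Higher reads as stronger inhibition (inferred: compounds with an IC50 in retests scored well above the rest). About 69,000 compounds were tested under these conditions; 0.045% (about 31) showed 50% or more at least once.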

The filed quantity is “Percent Effect” (%). How 0% and 100% were set is not recorded. Most values in the screen are low, and negative values occur. Compounds were drawn at random from those tested, without regard to their results.

Result for COc1ccccc1C1CNC(=O)c2nc(-c3ncc[nH]3)[nH]c2C1 (centres unmarked) was PfKRS1: -2.22%; Pks13 thioesterase: -14.9%; MtTrpRS: 2.554%; TcHisRS: 0.8333%.
Result for c1ccc(OCCNC2CCN(c3ncccn3)CC2)cc1 was PfKRS1: 0.2663%; Pks13 thioesterase: -21.02%; MtTrpRS: 0.9828%; TcHisRS: 6.077%.
Result for Cn1nc(COc2cccnc2)c2c1CCN(Cc1ccco1)C2 was PfKRS1: -0.8214%; Pks13 thioesterase: -5.172%; MtTrpRS: 1.803%; TcHisRS: 3.448%.
Result for CC(C)n1ccnc1CN1CCCN(C(=O)c2cccnc2O)CC1 was PfKRS1: 0.8205%; Pks13 thioesterase: -12.5%; MtTrpRS: -3.638%; TcHisRS: 1.527%.
Result for NC(=O)c1cnn2c1NCC(CNCC1(c3ccccc3)CCCC1)C2 (centres unmarked) was PfKRS1: 1.233%; Pks13 thioesterase: -16.71%; MtTrpRS: -1.44%; TcHisRS: 16.83%.
Result for CC(NCCCC#N)c1ccc(-c2cccnc2)cc1 (centres unmarked) was PfKRS1: -1.394%; Pks13 thioesterase: -18.58%; MtTrpRS: 12.18%; TcHisRS: -3.03%.
Result for Cc1cccc(CN2CCCC23CCNC3)n1 (centres unmarked) was PfKRS1: -3.449%; Pks13 thioesterase: -56.28%; MtTrpRS: 17.44%; TcHisRS: -1.942%.
Result for COc1nn(C)cc1C(=O)NCC(=O)NCc1cccnc1 was PfKRS1: 4.402%; Pks13 thioesterase: -8.91%; MtTrpRS: -5.547%; TcHisRS: 6.186%.
Result for CCC(=O)Nc1ccc2c(ccn2CC(=O)N(CC)CC)c1 was PfKRS1: 2.233%; Pks13 thioesterase: -13.06%; MtTrpRS: -4.959%; TcHisRS: 5.917%.
Result for CCNc1ncnc2c1CN(C1CCCNCC1)C(=O)CN2C (centres unmarked) was PfKRS1: 3.501%; Pks13 thioesterase: -25.31%; MtTrpRS: -5.272%; TcHisRS: 6.509%.
Result for COc1ccc(C2CCN(CCCC#N)CC2)cc1 was PfKRS1: -3.638%; Pks13 thioesterase: 9.967%; MtTrpRS: 1.525%; TcHisRS: 4.242%.
Result for CN(C)C(C(=O)N1CCN(CCn2cccc2)CC1)c1cccc(F)c1 (centres unmarked) was PfKRS1: 2.939%; Pks13 thioesterase: 48.88%; MtTrpRS: -4.516%; TcHisRS: 4.762%.
Result for Cc1cnccc1CN(C)C1CCN(c2ncnc3[nH]cnc23)CC1 was PfKRS1: 1.42%; Pks13 thioesterase: -30.27%; MtTrpRS: -8.318%; TcHisRS: 3.448%.
Result for CN(C)CC1COCCN1C(=O)c1ccccc1C(=O)c1ccccc1 (centres unmarked) was PfKRS1: 1.393%; Pks13 thioesterase: -31.25%; MtTrpRS: -0.1564%; TcHisRS: 10.2%.
Result for CN(C)C[C@H]1OC[C@@H]2CCN(C(=O)NCc3cccc(F)c3)C[C@@H]21 was PfKRS1: 1.931%; Pks13 thioesterase: -18.3%; MtTrpRS: -4.026%; TcHisRS: 6.897%.
Result for COc1cc(-c2cnnc(NCCCOC(C)C)n2)cc(OC)c1OC was PfKRS1: 2.336%; Pks13 thioesterase: -15.27%; MtTrpRS: -1.536%; TcHisRS: 5.587%.
Result for c1ccc2oc(CN3CCCC3c3noc(C4CC4)n3)nc2c1 (centres unmarked) was PfKRS1: -0.1766%; Pks13 thioesterase: -29.46%; MtTrpRS: -1.548%; TcHisRS: 7.289%.
Result for c1ccc(-c2nccc(N3CCc4c(ncn4C4CC4)C3)n2)cc1 was PfKRS1: 3.176%; Pks13 thioesterase: -29.24%; MtTrpRS: -4.421%; TcHisRS: 17.46%.
Result for CCCNC(=O)CCC(=O)Nc1cc2sc(C)nc2cc1OC was PfKRS1: 8.872%; Pks13 thioesterase: -15.07%; MtTrpRS: 1.616%; TcHisRS: 3.061%.
Result for CCCc1nc(C(=O)N2CCN(C(=O)c3ccc(OC)cc3)CC2)cs1 was PfKRS1: 1.673%; Pks13 thioesterase: -2.442%; MtTrpRS: -0.3974%; TcHisRS: 9.036%.
Result for CCc1nc(CN2CCCC(NCc3nc4ccccc4o3)C2)no1 (centres unmarked) was PfKRS1: 1.476%; Pks13 thioesterase: -14.3%; MtTrpRS: -6.198%; TcHisRS: 2.339%.
Result for Cc1cccc2nc(CNC(=O)N3CCC(OCC4CC4)CC3)cn12 was PfKRS1: -1.4%; Pks13 thioesterase: -13.94%; MtTrpRS: 0.5882%; TcHisRS: 2.41%.
Result for CCCn1[nH]cc/c1=N\C(=O)CN1CCc2cnc(CC)nc2C1 was PfKRS1: 4.008%; Pks13 thioesterase: 7.075%; MtTrpRS: 4.139%; TcHisRS: 10.94%.
Result for Cc1cc(C)n(CC2CCCN2C(=O)c2cccc3c2OCCO3)n1 (centres unmarked) was PfKRS1: -0.4251%; Pks13 thioesterase: -11.76%; MtTrpRS: 4.935%; TcHisRS: 6.706%.
Result for Nc1cnc(-c2cccc3ccnn23)cn1 was PfKRS1: 5.317%; Pks13 thioesterase: 2.56%; MtTrpRS: -5.062%; TcHisRS: 0%.
Result for O=C(Nc1ccc(I)cc1C(=O)NCCN1CCOCC1)c1cccs1 was PfKRS1: 4.574%; Pks13 thioesterase: -5.545%; MtTrpRS: 0.07178%; TcHisRS: 4.386%.

Repeated from the top, 3 entries:

{"compound": "COc1ccccc1C1CNC(=O)c2nc(-c3ncc[nH]3)[nH]c2C1", "stereo": "centres unmarked", "PfKRS1": -2.22, "Pks13 thioesterase": -14.9, "MtTrpRS": 2.554, "TcHisRS": 0.8333}
{"compound": "c1ccc(OCCNC2CCN(c3ncccn3)CC2)cc1", "PfKRS1": 0.2663, "Pks13 thioesterase": -21.02, "MtTrpRS": 0.9828, "TcHisRS": 6.077}
{"compound": "Cn1nc(COc2cccnc2)c2c1CCN(Cc1ccco1)C2", "PfKRS1": -0.8214, "Pks13 thioesterase": -5.172, "MtTrpRS": 1.803, "TcHisRS": 3.448}

Source: ChEMBL document CHEMBL3988442, “University of Dundee, Small-Polar-MMV Screening Library” (2021).